Assay results taken from PubChem BioAssay AID1347076 (National Center for Advancing Translational Sciences (NCATS), 2019).
The campaign covered roughly 400,000 compounds. About 13,000 (3.2%) were called active. The shares of active, inactive and inconclusive entries below differ from those in the screen. Calls follow the shape of the dose curve; as a rule, active = well fitted cell-killing curve with a large enough effect; inconclusive = small, poorly fitted or top-dose-only effect, or effect the other way; inactive = flat fitted curve, though single readings scatter. Where the call is inconclusive, the potency comes from a doubtful curve fit.

Assay: qHTS assay for MDR1-selective chemotherapeutics: Primary screen using the drug-selected MDR subline cells KB-V1; also: nearly all actives have a fitted effect of over 60% in size
Conditions: KB-V1 MDR cells viability, CellTiter-Glo, 72 h; activity change, negative = cytotoxicity: at 46.1 µM (top of the series)
Procedure, shortened: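 Cytotoxicity via CellTiter-Glo luminescence after 72 h compound exposure at 37 degrees C. Cells: drug-selected KB-V1 line, DMEM phenol-red free plus 10% FBS. Compounds tested at multiple concentrations; normalized data fitted to concentration-effect curves.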
% is scaled to controls: 0 for no effect and ±100 for the full control effect; potency is read from the fitted curve at half-maximal effect.

SMILES	Potency	activity change, negative = cytotoxicity
COc1ccc(CCC(=O)N2CCc3ccccc32)cc1	inconclusive: 23.1 µM [cytotoxic, partial curve, poor fit]	–
O=S(=O)(c1ccc(Cl)cc1)c1nc(-c2ccco2)oc1SCc1ccc(F)cc1	inconclusive: 29.1 µM [cytotoxic, single point]	–
CCCCn1c(SCC(=O)Nc2nnc(CC)s2)nc2ccccc2c1=O	inconclusive: 2.06 µM [cytotoxic, full curve, poor fit]	–
CC1(C(=O)NS(=O)(=O)c2ccccc2Cl)CCN1C(=O)C1(c2ccccc2)CC1 (stereo unspecified)	inactive	–
NS(=O)(=O)c1ccc(CCNC(=O)CNC(=O)Cc2cccc3ccccc23)cc1	inconclusive: 16.4 µM [rising, partial curve]	–
COC(=O)c1ccc(NC(=O)c2ccc(CN3CCOCC3)cc2)cc1	active: 2.59 µM	–
CC1C(=O)C(C)C(c2cccs2)NC1c1cccs1 (stereo unspecified)	inactive	–
O=C(CSc1nccc(-c2cccs2)n1)Nc1cccc(Cl)c1	inconclusive: 29.1 µM [cytotoxic, single point]	–
Cc1ccc(-c2nc(N=Nc3ccc(O)cc3)n[nH]2)cc1	active: 13 µM	–
CCCN1CCC(=O)N([C@H](COc2ccccc2)c2ccccc2)CC1	inconclusive: 9.2 µM [cytotoxic, partial curve]	–
O=C(Cc1ccccc1)c1c[nH]c(C(=O)NC2CCCC2)c1	inconclusive: 16.4 µM [cytotoxic, single point]	–
COc1cc(OC)cc(C(=O)Nc2cc3c(cc2N2CCCC2)n(C)c(=O)c(=O)n3C)c1	inactive	–
CC(C)c1ccc(NC(=O)C(=O)C2C(=O)Nc3ccccc32)cc1 (stereo unspecified)	inactive	–
O=C(NCCCN1CCOCC1)c1ccc2nc(Cc3cccc(Cl)c3)oc2c1	inconclusive: 8.2 µM [cytotoxic, partial curve]	–
Cc1noc(C)c1COc1ccc(C(=O)N2CCC(C)CC2)cc1	active: 23.1 µM	–
CN(C)CCCN(C(=O)c1cc2cc([N+](=O)[O-])ccc2s1)c1nc2cc3c(cc2s1)OCCO3	active: 18.4 µM	–
COc1ccc(C(=O)NC[C@H]2O[C@@H](n3cnc4c(N)ncnc43)[C@H](O)[C@@H]2O)cc1OC	inconclusive: 18.4 µM [rising, single point]	–
Cc1cc(=O)n2nc(N3CCCC3C(=O)Nc3cccc(F)c3)sc2n1 (stereo unspecified)	inconclusive: 29.1 µM [cytotoxic, single point]	–
CCN(CC)CCOC(=O)c1c(C)oc2ccc(OC)cc12	inactive	–
O=C(c1ccccc1)c1ccc(-n2ccnc2)c([N+](=O)[O-])c1	active: 18.4 µM	–
CC(=O)Nc1ccc(NC(=O)CN(c2ccc(F)cc2)S(=O)(=O)c2ccc3c(c2)OCCO3)cc1	inconclusive: 35.5 µM [cytotoxic, single point]	–
Cc1cccc2c(C(=O)N3CCCCC3)cc(-c3ccccc3)nc12	inconclusive: 16.4 µM [cytotoxic, single point]	–
OC(Cc1cccnc1)(c1ccccc1)c1ccccc1	active: 18.4 µM	–
CCCn1nc(C(=O)N(C)CC(=O)Nc2ccc(OCC)c(OCC)c2)c2ccccc2c1=O	inactive	–

Single entries from the results shown.
Potency, CC(C)c1ccc(NC(=O)C(=O)C2C(=O)Nc3ccccc32)cc1 (stereo unspecified) is entered as inactive
Potency, CCN(CC)CCOC(=O)c1c(C)oc2ccc(OC)cc12 is entered as inactive

Next part:

SMILES	Potency	activity change, negative = cytotoxicity
Cc1ccc2c(CC(=O)Nc3c(C(=O)c4ccc(C)c(F)c4)oc4ccccc34)coc2c1	–	inconclusive: -20.3%
Cc1cccnc1NC(=O)CNC(=O)c1cccs1	–	inconclusive: 36.4%
CN(c1ccccc1)c1nc(N)c([N+](=O)[O-])c(NCc2ccco2)n1	active: 20.6 µM	–
Cc1ccc(Cn2nc(C)cc2C(=O)Nc2ccc(Cl)cc2)cc1	inconclusive: 25.9 µM [cytotoxic, single point]	–
CCc1ccc2c(CN(C)Cc3ccccc3OC)cc(=O)oc2c1	inconclusive: 14.6 µM [cytotoxic, partial curve]	–
COc1ccc(S(=O)(=O)c2c(O)c3ccc(C(=O)NCc4ccc(F)cc4)cc3[nH]c2=O)cc1	inactive	–
CSCCC(NC(=O)COc1ccccc1)C(=O)NC1CCC(C)CC1 (stereo unspecified)	active: 8.2 µM	–
CCN(CC)CCCCNc1ncc2cc(-c3cc(OC)cc(OC)c3)c(NC(=O)NC(C)(C)C)nc2n1	inconclusive: 18.4 µM [cytotoxic, single point]	–
CC1CCCCN1C(=S)NC(=O)c1ccccc1 (stereo unspecified)	inconclusive: 16.4 µM [cytotoxic, partial curve]	–
CCC(=O)c1ccc(N2CCN(C(=O)c3ccccc3Br)CC2)c(F)c1	inconclusive: 23.1 µM [cytotoxic, single point]	–
O=C(Nc1cccc(Cl)c1Cl)C1CC(=O)N(c2ccc(Br)cc2)C1 (stereo unspecified)	inactive	–
COc1ccc2oc(-c3ccc(NC(=O)c4ccc(N5CCOCC5)c([N+](=O)[O-])c4)cc3)nc2c1	inconclusive: 0.82 µM [cytotoxic, full curve, poor fit]	–
CCCOC1CCCN(Cc2nc(-c3cnccn3)no2)C1 (stereo unspecified)	inconclusive: 13 µM [rising, partial curve]	–
CN(C)CCNC(=O)C1CCN(Cc2cc3ccccc3n2Cc2ccccc2)CC1	inconclusive: 29.1 µM [rising, single point]	–
CSc1nc(S(=O)(=O)c2ccccc2)c(Cl)s1	–	inconclusive: 12.3%
O=C(c1ccc(N2CCCC2=O)cc1)N1CCN(c2ccc(Cl)cc2)CC1	inconclusive: 29.1 µM [cytotoxic, single point]	–
CCCN(CCC)CCCNC(=O)c1cc2c(-c3ccc(OC)c(OC)c3)nn(C)c2s1	inconclusive: 11.6 µM [cytotoxic, partial curve]	–
CCC(C)[C@H](NS(=O)(=O)c1ccc(C)cc1)C(=O)N1CCC(C(=O)N[C@@H](Cc2ccccc2)C(=O)O)CC1 (stereo partly specified)	inconclusive: 23.1 µM [rising, single point]	–
Cc1ccc(-n2nc(C)c3c(C)c(CCC(=O)NCc4ccccc4)c(C)nc32)cc1	inactive	–
CC1Cc2cc(/C(O)=C3/C(=O)C(=O)N(Cc4ccncc4)C3c3ccc(N(C)C)cc3)ccc2O1 (stereo unspecified)	inconclusive: 29.1 µM [rising, single point]	–
CC(C)C[C@H]1C(=O)N2CCC[C@H]2[C@]2(O)O[C@](NC(=O)[C@@H]3C=C4c5cccc6[nH]c(Br)c(c56)CC4N(C)C3)(C(C)C)C(=O)N12 (stereo partly specified)	inconclusive: 29.1 µM [cytotoxic, single point]	–
O=C(CSc1ncnc2c1sc1ccccc12)Nc1ccc(Br)cc1	inconclusive: 18.4 µM [cytotoxic, partial curve]	–
Cc1cccc(C)c1N1C(=O)CC(Sc2ccccc2N)C1=O (stereo unspecified)	inconclusive: 14.6 µM [cytotoxic, partial curve]	–
COC(=O)[C@@H]1Cc2c([nH]c3ccccc23)C(C)N1C(=O)c1ccccc1 (stereo partly specified)	inconclusive: 18.4 µM [cytotoxic, partial curve]	–

Compounds shown so far that contain a furan ring, fused or not, in the order listed:
SMILES	Potency	activity change, negative = cytotoxicity
O=S(=O)(c1ccc(Cl)cc1)c1nc(-c2ccco2)oc1SCc1ccc(F)cc1	inconclusive: 29.1 µM [cytotoxic, single point]	–
CCN(CC)CCOC(=O)c1c(C)oc2ccc(OC)cc12	inactive	–
Cc1ccc2c(CC(=O)Nc3c(C(=O)c4ccc(C)c(F)c4)oc4ccccc34)coc2c1	–	inconclusive: -20.3%
CN(c1ccccc1)c1nc(N)c([N+](=O)[O-])c(NCc2ccco2)n1	active: 20.6 µM	–

Carrying on.

SMILES	Potency	activity change, negative = cytotoxicity
Cc1sc(NC(=O)CSc2nc(O)cc(=O)[nH]2)nc1-c1ccccc1	inconclusive: 25.9 µM [rising, single point]	–
C[C@@H]1CN([C@H](C)CO)S(=O)(=O)c2ccc(Br)cc2O[C@H]1CN(C)C(=O)Nc1cccc(F)c1	inconclusive: 0.0092 µM [rising, full curve, poor fit]	–
O=C1CC(c2nc(-c3ccc(Cl)cc3)no2)CN1c1ccc2c(c1)OCCO2 (stereo unspecified)	inactive	–
Cc1ccc([N+](=O)[O-])c(OCCN2CCC(Cc3ccccc3)CC2)c1	active: 20.6 µM	–
C/C(=N\NC(=O)c1cc(-c2cccc([N+](=O)[O-])c2)n[nH]1)c1ccccc1O	inactive	–
Cc1ccc(S(=O)(=O)n2nc(-c3ccccc3)nc2NCc2ccc(Cl)cc2)cc1	inconclusive: 29.1 µM [rising, single point]	–
O=C(NCC(O)COc1ccc([N+](=O)[O-])cc1)Nc1ccccc1 (stereo unspecified)	inconclusive: 29.1 µM [cytotoxic, single point]	–
COc1cccc(CNC(=O)CC2Sc3ccccc3NC2=O)c1 (stereo unspecified)	inactive	–
CC(C)Cn1c(-c2ccccc2)nc(=S)c2c1CCCC2	inactive	–
CN(C(=O)CSc1nnc(-c2ccc(F)cc2)n1C)C1CCS(=O)(=O)C1 (stereo unspecified)	inconclusive: 29.1 µM [rising, single point]	–
COC(=O)c1cc(=O)n(-c2ccccc2)c(=Nc2ccccc2)s1	inactive	–
CCOc1ccc(C(=O)COC(=O)C2COc3ccccc3O2)cc1 (stereo unspecified)	inconclusive: 29.1 µM [rising, single point]	–
CC(=O)c1ccc(NC(=O)c2cc(-c3ccc(C)s3)nc3ccccc23)cc1	inactive	–
COC1OC2COC(c3ccccc3)OC2C(O)C1N (stereo unspecified)	inconclusive: 5.8 µM [rising, partial curve, poor fit]	–
O=C(NCc1cccc(Br)c1)c1cnn(-c2ccc(F)cc2)c1-n1cccc1	inconclusive: 8.2 µM [cytotoxic, partial curve]	–
CCOC(=O)C1CCN(c2ncnc3c2cnn3C)CC1	inactive	–
Cn1c2ccccc2c(=O)c2ccc(Cl)cc21	active: 13 µM	–
CC(NC(=O)C(Cc1ccccc1)N1C(=O)C2C3CCC(C3)C2C1=O)c1ccccc1 (stereo unspecified)	active: 7.31 µM	–
CCOC(=O)c1cnc(SCc2ccc(C(C)(C)C)cc2)nc1N	inconclusive: 20.6 µM [cytotoxic, partial curve]	–
O=C1NC2(CCCCC2)NN1c1ccccc1	inactive	–
Cc1ccc(S(=O)(=O)CNC(=S)c2cccc(Cl)c2)cc1	inactive	–
CN(c1ccccc1)S(=O)(=O)c1cccc(NC(=O)C2CC(=O)N(Cc3ccccc3)C2)c1 (stereo unspecified)	inconclusive: 20.6 µM [cytotoxic, single point]	–
CCOc1ccc(S(=O)(=O)N2CCCC(C(=O)NC3CC3)C2)cc1Cl (stereo unspecified)	inconclusive: 23.1 µM [cytotoxic, single point]	–
